The list shows a part of the results.
Columns and labels:
Assay in all cases: log2 fold change, soluble protein after heating vs DMSO (PISA); higher = thermal stabilisation; K562 cells, 10 uM, 30 min; active = over 0.2 and 3.5 SD of the protein, either way, in both replicates (recomputed)
[1] = compound: CS(=O)(=O)c1ccc(-c2cnc(N)c(C(=O)Nc3ccccc3)n2)cc1
Method in brief: (§1)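 Aliquots of K562 cells (2×10^6 cells/mL) treated with 10 μM compound for 30 min were heated for 3 min over 48°C-58°C. After pooling and extraction in PBS with 0.5% NP-40 at 4°C, soluble protein from a 21,000xg, 90 min spin was quantified by TMTpro 16plex LC-MS/MS with channel sums equalised. Thermal stability is expressed against control samples, from duplicates, as a log2 fold change.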

Sequences of proteins named here, by UniProt entry; tags and fusion partners are left off. A change or cut given only in a name is not applied to a line headed by its entry.
UniProt O00329: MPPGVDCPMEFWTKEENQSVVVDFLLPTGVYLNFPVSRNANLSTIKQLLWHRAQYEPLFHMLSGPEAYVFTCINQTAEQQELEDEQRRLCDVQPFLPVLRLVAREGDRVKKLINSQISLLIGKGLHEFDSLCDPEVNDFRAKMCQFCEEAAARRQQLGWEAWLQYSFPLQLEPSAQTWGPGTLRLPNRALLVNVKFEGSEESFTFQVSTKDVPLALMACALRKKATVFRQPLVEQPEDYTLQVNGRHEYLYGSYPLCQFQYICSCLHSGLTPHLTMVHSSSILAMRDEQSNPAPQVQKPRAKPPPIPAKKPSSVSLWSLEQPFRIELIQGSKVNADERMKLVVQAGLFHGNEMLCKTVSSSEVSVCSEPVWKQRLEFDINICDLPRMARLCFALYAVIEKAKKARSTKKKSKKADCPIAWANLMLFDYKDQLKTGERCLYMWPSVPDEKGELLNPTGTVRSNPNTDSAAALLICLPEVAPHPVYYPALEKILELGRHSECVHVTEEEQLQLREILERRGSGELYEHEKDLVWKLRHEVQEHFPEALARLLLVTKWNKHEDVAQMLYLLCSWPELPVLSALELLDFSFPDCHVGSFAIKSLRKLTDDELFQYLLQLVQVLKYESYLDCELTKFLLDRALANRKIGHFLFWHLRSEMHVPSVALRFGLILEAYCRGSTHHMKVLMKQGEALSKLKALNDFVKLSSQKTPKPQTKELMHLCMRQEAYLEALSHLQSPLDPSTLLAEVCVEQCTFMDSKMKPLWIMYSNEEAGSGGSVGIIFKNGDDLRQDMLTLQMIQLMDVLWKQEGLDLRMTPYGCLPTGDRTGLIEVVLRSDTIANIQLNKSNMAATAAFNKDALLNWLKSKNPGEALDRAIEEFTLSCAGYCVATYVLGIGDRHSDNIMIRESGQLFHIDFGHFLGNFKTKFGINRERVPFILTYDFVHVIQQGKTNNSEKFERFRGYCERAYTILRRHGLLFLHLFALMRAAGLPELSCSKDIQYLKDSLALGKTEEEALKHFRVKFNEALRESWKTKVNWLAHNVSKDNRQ
UniProt P07205: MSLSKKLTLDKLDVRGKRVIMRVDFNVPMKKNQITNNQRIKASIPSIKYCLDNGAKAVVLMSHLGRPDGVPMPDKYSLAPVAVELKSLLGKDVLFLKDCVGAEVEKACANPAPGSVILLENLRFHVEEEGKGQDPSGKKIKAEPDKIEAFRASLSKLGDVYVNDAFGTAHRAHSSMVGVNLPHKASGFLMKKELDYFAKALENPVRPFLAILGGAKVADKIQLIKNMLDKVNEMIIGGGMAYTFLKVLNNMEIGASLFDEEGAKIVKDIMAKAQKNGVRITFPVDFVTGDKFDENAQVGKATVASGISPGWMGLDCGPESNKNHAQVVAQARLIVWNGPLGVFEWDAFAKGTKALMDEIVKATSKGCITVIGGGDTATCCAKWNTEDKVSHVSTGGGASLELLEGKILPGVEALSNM
UniProt P0C869: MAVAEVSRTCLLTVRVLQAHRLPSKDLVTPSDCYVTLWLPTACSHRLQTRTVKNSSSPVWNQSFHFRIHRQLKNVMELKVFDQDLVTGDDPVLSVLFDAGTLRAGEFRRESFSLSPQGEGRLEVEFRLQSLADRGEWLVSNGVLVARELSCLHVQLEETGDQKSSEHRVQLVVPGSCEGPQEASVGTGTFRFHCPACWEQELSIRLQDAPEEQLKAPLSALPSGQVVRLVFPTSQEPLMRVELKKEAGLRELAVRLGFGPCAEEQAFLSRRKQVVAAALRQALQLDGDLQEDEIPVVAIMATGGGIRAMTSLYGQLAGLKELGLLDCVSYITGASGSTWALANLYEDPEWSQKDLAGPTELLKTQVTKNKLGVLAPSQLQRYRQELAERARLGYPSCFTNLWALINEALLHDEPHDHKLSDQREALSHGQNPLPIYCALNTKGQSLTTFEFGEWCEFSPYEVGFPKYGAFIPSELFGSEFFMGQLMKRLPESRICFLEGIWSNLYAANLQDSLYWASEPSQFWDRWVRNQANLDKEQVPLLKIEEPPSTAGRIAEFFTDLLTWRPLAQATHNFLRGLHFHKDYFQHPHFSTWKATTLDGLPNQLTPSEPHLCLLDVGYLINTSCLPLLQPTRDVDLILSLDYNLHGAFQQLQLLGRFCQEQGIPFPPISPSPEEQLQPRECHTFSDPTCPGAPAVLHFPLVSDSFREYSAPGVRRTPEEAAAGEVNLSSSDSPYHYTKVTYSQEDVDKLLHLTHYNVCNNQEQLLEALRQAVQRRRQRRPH
UniProt P19174: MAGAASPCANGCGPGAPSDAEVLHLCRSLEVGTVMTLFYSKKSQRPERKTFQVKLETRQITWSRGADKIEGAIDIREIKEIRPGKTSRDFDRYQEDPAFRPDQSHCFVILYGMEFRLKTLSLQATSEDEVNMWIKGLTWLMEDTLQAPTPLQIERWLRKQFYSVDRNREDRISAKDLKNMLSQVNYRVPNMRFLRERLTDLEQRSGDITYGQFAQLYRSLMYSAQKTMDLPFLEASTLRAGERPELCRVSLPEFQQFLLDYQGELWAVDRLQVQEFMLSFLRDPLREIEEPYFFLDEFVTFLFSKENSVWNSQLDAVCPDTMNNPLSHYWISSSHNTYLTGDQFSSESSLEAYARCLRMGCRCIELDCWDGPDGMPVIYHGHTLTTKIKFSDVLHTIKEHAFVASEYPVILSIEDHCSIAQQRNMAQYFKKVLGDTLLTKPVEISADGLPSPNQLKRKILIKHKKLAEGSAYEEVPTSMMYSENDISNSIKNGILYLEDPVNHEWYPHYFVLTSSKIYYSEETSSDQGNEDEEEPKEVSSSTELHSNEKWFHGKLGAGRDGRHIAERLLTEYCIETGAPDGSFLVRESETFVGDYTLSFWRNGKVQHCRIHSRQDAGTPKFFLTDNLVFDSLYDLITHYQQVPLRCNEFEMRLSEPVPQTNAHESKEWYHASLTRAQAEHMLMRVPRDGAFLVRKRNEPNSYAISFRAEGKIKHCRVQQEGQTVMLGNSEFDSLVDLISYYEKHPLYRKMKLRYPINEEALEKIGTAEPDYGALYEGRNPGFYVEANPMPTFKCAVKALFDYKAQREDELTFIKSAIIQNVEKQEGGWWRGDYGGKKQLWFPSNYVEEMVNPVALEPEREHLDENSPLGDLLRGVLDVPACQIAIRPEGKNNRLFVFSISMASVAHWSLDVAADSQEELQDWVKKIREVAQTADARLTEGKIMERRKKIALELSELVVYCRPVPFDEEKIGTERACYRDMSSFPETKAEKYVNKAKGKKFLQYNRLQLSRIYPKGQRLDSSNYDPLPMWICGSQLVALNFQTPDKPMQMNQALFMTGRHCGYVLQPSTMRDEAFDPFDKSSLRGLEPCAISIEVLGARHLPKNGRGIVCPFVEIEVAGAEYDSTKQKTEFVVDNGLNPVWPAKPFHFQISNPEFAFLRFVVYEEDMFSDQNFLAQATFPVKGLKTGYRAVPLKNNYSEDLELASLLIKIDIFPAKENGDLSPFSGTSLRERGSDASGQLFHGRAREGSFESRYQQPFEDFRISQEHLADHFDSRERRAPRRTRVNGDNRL
UniProt Q7RTV0, whole entry, looked up: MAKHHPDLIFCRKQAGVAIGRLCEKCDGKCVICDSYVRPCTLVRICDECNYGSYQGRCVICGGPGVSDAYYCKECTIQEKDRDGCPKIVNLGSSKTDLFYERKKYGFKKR
UniProt Q8NHP8: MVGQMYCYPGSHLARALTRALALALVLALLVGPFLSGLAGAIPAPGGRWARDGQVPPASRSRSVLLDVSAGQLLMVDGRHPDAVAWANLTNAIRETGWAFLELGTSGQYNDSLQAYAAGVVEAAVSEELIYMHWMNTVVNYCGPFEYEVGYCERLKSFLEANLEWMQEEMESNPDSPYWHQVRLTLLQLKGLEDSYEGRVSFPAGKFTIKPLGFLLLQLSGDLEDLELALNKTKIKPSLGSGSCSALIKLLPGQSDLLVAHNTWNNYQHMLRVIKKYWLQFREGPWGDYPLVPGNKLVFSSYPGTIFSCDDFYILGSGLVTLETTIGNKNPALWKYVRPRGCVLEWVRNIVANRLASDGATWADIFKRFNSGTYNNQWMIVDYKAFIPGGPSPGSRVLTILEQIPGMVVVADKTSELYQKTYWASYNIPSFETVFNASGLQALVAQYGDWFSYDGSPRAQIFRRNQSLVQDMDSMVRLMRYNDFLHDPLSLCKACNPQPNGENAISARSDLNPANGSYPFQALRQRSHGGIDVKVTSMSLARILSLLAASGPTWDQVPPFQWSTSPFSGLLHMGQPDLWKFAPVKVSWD
UniProt P48736: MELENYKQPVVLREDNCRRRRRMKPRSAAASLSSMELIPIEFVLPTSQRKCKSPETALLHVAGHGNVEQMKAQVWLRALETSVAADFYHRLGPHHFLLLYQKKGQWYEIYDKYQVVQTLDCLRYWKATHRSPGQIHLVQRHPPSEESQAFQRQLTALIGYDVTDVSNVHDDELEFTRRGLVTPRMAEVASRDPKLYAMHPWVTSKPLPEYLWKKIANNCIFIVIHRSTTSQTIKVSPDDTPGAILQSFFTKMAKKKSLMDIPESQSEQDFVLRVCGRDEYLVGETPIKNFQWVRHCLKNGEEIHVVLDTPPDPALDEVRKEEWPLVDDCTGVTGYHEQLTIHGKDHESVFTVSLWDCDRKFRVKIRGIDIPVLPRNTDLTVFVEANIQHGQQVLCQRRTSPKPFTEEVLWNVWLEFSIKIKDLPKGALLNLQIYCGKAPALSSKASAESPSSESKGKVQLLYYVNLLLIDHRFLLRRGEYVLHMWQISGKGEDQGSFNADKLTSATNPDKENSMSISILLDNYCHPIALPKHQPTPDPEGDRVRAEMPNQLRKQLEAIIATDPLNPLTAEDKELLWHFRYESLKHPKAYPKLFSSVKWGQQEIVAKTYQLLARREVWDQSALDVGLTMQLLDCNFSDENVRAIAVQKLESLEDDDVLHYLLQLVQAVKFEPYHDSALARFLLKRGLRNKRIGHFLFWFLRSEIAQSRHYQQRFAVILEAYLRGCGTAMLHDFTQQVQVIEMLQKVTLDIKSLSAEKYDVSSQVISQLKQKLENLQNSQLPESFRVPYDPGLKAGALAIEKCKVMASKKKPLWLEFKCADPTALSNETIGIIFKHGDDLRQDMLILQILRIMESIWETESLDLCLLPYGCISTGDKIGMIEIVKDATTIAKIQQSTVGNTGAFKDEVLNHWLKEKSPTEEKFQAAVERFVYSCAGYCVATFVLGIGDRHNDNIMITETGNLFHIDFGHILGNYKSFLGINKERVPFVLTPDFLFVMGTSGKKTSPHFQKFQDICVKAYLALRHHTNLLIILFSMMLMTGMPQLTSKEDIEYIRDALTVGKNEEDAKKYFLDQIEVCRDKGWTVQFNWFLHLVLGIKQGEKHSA
UniProt O00625: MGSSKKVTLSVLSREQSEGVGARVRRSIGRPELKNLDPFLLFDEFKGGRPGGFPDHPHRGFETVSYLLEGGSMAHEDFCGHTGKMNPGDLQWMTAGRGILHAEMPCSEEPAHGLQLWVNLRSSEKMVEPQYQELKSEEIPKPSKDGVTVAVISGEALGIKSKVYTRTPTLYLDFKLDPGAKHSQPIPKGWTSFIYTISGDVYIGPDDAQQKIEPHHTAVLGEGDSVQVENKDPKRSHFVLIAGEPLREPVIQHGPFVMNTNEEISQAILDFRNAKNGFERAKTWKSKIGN
UniProt Q8NCC3: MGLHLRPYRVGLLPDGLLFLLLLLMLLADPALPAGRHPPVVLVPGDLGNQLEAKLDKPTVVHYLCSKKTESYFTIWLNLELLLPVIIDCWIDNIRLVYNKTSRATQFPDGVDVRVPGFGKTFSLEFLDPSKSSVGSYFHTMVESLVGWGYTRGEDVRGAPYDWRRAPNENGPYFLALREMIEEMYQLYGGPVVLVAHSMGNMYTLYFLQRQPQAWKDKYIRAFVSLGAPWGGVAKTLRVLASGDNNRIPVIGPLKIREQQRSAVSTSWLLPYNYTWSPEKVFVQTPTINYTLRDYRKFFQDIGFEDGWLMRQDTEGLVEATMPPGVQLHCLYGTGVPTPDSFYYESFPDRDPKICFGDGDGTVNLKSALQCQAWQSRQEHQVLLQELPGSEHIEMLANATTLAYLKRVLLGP
UniProt Q86T03: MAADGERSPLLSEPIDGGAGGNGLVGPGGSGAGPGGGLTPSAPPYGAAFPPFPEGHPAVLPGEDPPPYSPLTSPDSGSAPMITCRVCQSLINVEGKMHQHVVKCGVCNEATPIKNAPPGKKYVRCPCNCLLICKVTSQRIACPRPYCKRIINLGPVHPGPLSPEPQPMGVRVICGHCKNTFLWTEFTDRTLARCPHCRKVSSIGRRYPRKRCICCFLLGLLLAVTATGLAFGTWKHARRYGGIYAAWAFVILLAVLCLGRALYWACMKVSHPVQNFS

[2] = compound: C[C@@H](Oc1cc(-c2cnn(C3CCNCC3)c2)cnc1N)c1c(Cl)ccc(F)c1Cl [crizotinib]
Method in brief: as §1

[3] = compound: C[C@@H]1COCCN1C2=NC(=NC(=C2)C3(CC3)S(=O)(=O)C)C4=C5C=CNC5=CC=C4
Method in brief: as §1

[4] = compound: C[C@H](C1=CC=C(C=C1)C(=O)NC2=C3C=CNC3=NC=C2)N
Method in brief: as §1

[5] = compound: Cc1cc(Nc2cc(CN3CCOCC3)c3nc(C)c(Cc4ccc(Cl)cc4F)n3n2)n[nH]1 [gandotinib]
Method in brief: as §1

[6] = compound: Cc1cc(SCc2sc(-c3ccc(C(F)(F)F)cc3)nc2C)ccc1OCC(=O)O
Method in brief: as §1

[7] = compound: Cc1ccc(-n2nc(C(C)(C)C)cc2NC(=O)Nc2ccc(OCCN3CCOCC3)c3ccccc23)cc1 [doramapimod]
Method in brief: as §1

[8] = compound: Cc1ccc(C(=O)N(CCCN)[C@@H](c2nc3cc(Cl)ccc3c(=O)n2Cc2ccccc2)C(C)C)cc1 [ispinesib]
Method in brief: as §1

[9] = compound: C[C@H](Nc1ncnc2nc[nH]c12)c1cc2cccc(Cl)c2c(=O)n1-c1ccccc1 [duvelisib]
Method in brief: as §1

[10] = compound: Cc1cc(Nc2cc(N3CCN(C)CC3)nc(Sc3ccc(NC(=O)C4CC4)cc3)n2)n[nH]1 [tozasertib]
Method in brief: as §1

| Target | log2 fold change [1] | log2 fold change [2] | log2 fold change [3] | log2 fold change [4] | log2 fold change [5] | log2 fold change [6] | log2 fold change [7] | log2 fold change [8] | log2 fold change [9] | log2 fold change [10] |
| --- | --- | --- | --- | --- | --- | --- | --- | --- | --- | --- |
| PI4K2A (UniProt Q9BTU6) | inactive: 0.031 | inactive: -0.185 | inactive: 0.032 | inactive: 0 | inactive: -0.004 | inactive: 0.001 | inactive: 0.015 | active: -0.244 | – | – |
| PIK3CD (UniProt O00329) | inactive: -0.019 | inactive: 0.009 | inactive: 0.034 | inactive: 0.14 | – | inactive: -0.11 | inactive: 0.042 | inactive: -0.029 | – | – |
| PGK2 (UniProt P07205) | inactive: 0.016 | inactive: 0.029 | inactive: 0.075 | inactive: -0.002 | inactive: 0.078 | inactive: -0.093 | inactive: -0.109 | inactive: 0.024 | – | – |
| PLA2G4B isoform 6 (UniProt P0C869) | inactive: -0.009 | inactive: -0.092 | – | inactive: -0.032 | inactive: -0.045 | inactive: -0.121 | inactive: 0.166 | inactive: -0.05 | inactive: 0.165 | inactive: -0.293 |
| PLCB3 (UniProt Q01970) | inactive: 0 | inactive: -0.07 | inactive: 0.014 | inactive: 0.013 | inactive: 0.031 | inactive: 0.034 | inactive: 0.014 | inactive: -0.078 | – | – |
| PIK3C2A (UniProt O00443) | inactive: -0.002 | inactive: 0.158 | inactive: -0.325 | – | – | – | inactive: -0.045 | inactive: -0.457 | – | – |
| PIGM (UniProt Q9H3S5) | inactive: -0.026 | inactive: -0.085 | – | inactive: 0.325 | – | inactive: 0.117 | inactive: -0.053 | – | inactive: -0.053 | – |
| PLCG1 isoform 2 (UniProt P19174) | inactive: 0.016 | active: -0.412 | inactive: -0.09 | inactive: 0.16 | inactive: 0.107 | inactive: 0.161 | inactive: 0.001 | inactive: -0.178 | – | – |
| PHKG2 (UniProt P15735) | inactive: 0.015 | inactive: 0 | inactive: -0.097 | inactive: 0.053 | inactive: -0.017 | inactive: -0.006 | inactive: 0.044 | inactive: 0.018 | – | – |
| PHF5A (UniProt Q7RTV0) | inactive: 0.013 | inactive: 0.074 | inactive: -0.061 | inactive: -0.072 | inactive: -0.009 | inactive: -0.031 | inactive: -0.093 | inactive: 0.094 | – | – |
| PEX7 (UniProt O00628) | inactive: -0.011 | inactive: -0.037 | inactive: 0.121 | inactive: 0.024 | inactive: -0.005 | inactive: 0.145 | inactive: 0.002 | inactive: -0.078 | – | – |
| PLBD2 (UniProt Q8NHP8) | inactive: 0.014 | inactive: -0.07 | inactive: 0.044 | inactive: -0.008 | inactive: 0.003 | inactive: -0.028 | inactive: 0.022 | inactive: -0.088 | – | – |
| PIK3CG (UniProt P48736) | inactive: 0.187 | inactive: -0.12 | inactive: -0.078 | – | – | – | inactive: 0.322 | – | – | – |
| PIR (UniProt O00625) | inactive: 0.004 | inactive: 0.042 | inactive: 0.019 | inactive: -0.085 | inactive: 0.048 | inactive: 0.057 | inactive: 0.095 | inactive: 0.045 | – | – |
| PLA2G15 (UniProt Q8NCC3) | inactive: 0 | inactive: -0.163 | inactive: -0.008 | inactive: 0.015 | inactive: -0.036 | inactive: -0.016 | inactive: 0.015 | inactive: -0.055 | – | – |
| PIP4P1 isoform 2 (UniProt Q86T03) | inactive: 0.021 | active: -0.395 | inactive: -0.123 | inactive: 0.086 | inactive: 0.107 | inactive: -0.048 | inactive: -0.025 | active: -0.353 | – | – |

3 entries from above, with tabs.
Target	log2 fold change [1]	log2 fold change [2]	log2 fold change [3]	log2 fold change [4]	log2 fold change [5]	log2 fold change [6]	log2 fold change [7]	log2 fold change [8]	log2 fold change [9]	log2 fold change [10]
PLA2G4B isoform 6 (UniProt P0C869)	inactive: -0.009	inactive: -0.092	–	inactive: -0.032	inactive: -0.045	inactive: -0.121	inactive: 0.166	inactive: -0.05	inactive: 0.165	inactive: -0.293
PLCG1 isoform 2 (UniProt P19174)	inactive: 0.016	active: -0.412	inactive: -0.09	inactive: 0.16	inactive: 0.107	inactive: 0.161	inactive: 0.001	inactive: -0.178	–	–
PHF5A (UniProt Q7RTV0)	inactive: 0.013	inactive: 0.074	inactive: -0.061	inactive: -0.072	inactive: -0.009	inactive: -0.031	inactive: -0.093	inactive: 0.094	–	–

— the supplement of paper PMC10849652
